Assay results: US20120283283A1, “METHODS FOR DETECTING ENHANCED RISK OF OPIOID-INDUCED HYPOXIA IN A PATIENT” (priority 2011, published 2012)

Experiments:
[1] = tested on: patients with moderate to severe postoperative pain following bunionectomy surgery; assay: Three double blind, randomized clinical studies (007, 008, 021): oxygen desaturation (SpO2<90%) by pulse oximetry during 48 hour treatment
Procedure: Oxygen saturation was measured continuously during baseline and the 48 hour treatment periods using pulse oximetry. The total number and percentage of patients with oxygen desaturation (SpO2<90%) were recorded at: 0, 15, 30 and 45 minutes, and 1, 2, 3, 4, 5, 6 and 8 hours after study drug administration; at the time of administration of subsequent doses of study medication; at the time of administration of supplemental analgesic medication; 1 hour after administration of study medication; and whenever a desaturation occurred during the dosing period.
Respiration rate (<10 breaths/min, 10-12 breaths/min, >12 breaths/min) was summarized at the same time points as the SpO2 recordings. Cumulative MED was determined at the time of the first episode of SpO2<90%. All desaturations and use of supplemental oxygenation, use of narcotic antagonists against respiratory impairment, and respiratory related serious adverse events (SAEs) were recorded.
In subjects with oxygen desaturation the following data was recorded: cumulative MED at first desaturation; mean desaturation values; number of desaturation episodes; and total duration of desaturation episodes.
Some patients in the three clinical studies were enrolled who resided near study sites that are located at an altitude of about or over 4000 feet above sea level.

[2] = tested on: patients with postoperative pain; conditions: 1 mg bolus doses, 5-10 min lockout period, PCA; cited from earlier work

CN1CC[C@]23c4c5ccc(O)c4O[C@H]2[C@@H](O)C=C[C@H]3[C@H]1C5.O=S(=O)(O)O [morphine, morphine sulfate]
incidence of desaturation (SpO2<90%) ([1]; 12 mg MED, lower elevation / non-high altitude sites): 1.6% | cumulative dose before experiencing an oxygen desaturation event (SpO2<90%) ([1]; cumulative MED at first desaturation): 24 mg | incidence of desaturation at high elevation site compared to lower sites ([1]; morphine or oxycodone alone): nearly six-fold | subjects who experienced respiratory dysfunction [2]: about 2%
